Assay results from PubChem BioAssay AID1487 (National Center for Advancing Translational Sciences (NCATS), 2009).
The other results are listed elsewhere or left out. Further columns of the screen follow, without active or inactive calls. Most of these compounds were active or inconclusive in the main read-out, so they are no random draw. Potencies come from curve fits of mixed quality, noted in brackets.

Experiment: qHTS Assay for Modulators of Lamin A Splicing
Settings: HeLa LMNA splicing GFP/RFP minigene ratio, 48 h
Method in brief: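 S3 HeLa cells stably expressing lamin A-EGFP splicing minigene plus DsRed2, 600 cells/well, 48 h compound exposure at 37C. Laser-scanning cytometry; analysed as GFP (500-530 nm)/RFP (575-640 nm) total intensity ratio; 0.5% DMSO vehicle.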

[1] = measured here: GFP splicing reporter channel
[2] = measured here: RFP viability control channel

| SMILES | AC50 [1] | AC50 [2] |
| --- | --- | --- |
| COC(=O)c1nn(-c2nc(-c3ccc(OC)c(OC)c3)cc(C(F)(F)F)n2)cc1[N+](=O)[O-] | 4.47 µM [falling, full curve, poor fit] | – |
| COc1ccccc1N1CCN(C(=O)C2CCCN(S(=O)(=O)c3ccc4c(c3)oc(=O)n4C)C2)CC1 (configuration not stated) | 6.31 µM [falling, partial curve, poor fit] | 0.891 µM [falling, full curve] |
| COC(=O)c1sccc1S(=O)(=O)N(CC(=O)NCc1ccccc1)c1ccc(C)cc1 | 0.02 µM [falling, full curve, poor fit] | – |
| COc1ccc(-c2c(C)sc(NC(=O)c3ccnn3C)c2C#N)cc1 | – | 6.31 µM [rising, partial curve] |
| COc1ccc2c(c1)c(CC(=O)O)c(C)n2Cc1ccc(F)cc1 | 0.126 µM [rising, full curve, poor fit] | 11.2 µM [rising, partial curve, poor fit] |
| CCc1c(C#N)c(SCCC(=O)Nc2cccc(OC)c2)nc2c1C(=O)CC(C)(C)C2 | – | 35.5 µM [rising, single point] |
| Cc1ccc(S(=O)(=O)c2nc(Nc3nccs3)sc2Cl)cc1 | – | 5.62 µM [rising, single point] |
| Cc1ccc(NC(=O)c2ccc([N+](=O)[O-])o2)cc1C | 2 µM [falling, full curve] | 8.91 µM [falling, partial curve] |
| Cc1cc(C(=O)COc2cccc(-n3cnnn3)c2)c(C)n1-c1ccccc1 | 14.1 µM [rising, partial curve] | 12.6 µM [rising, partial curve] |
| CCCc1cc(=O)[nH]c(SCC(=O)c2cc(C)n(CCOC)c2C)n1 | 11.2 µM [rising, partial curve] | – |
| CCCCNC(=O)C1CCCN(S(=O)(=O)c2ccc(S(=O)(=O)NCC(C)C)cc2)C1 (configuration not stated) | – | 35.5 µM [rising, single point] |
| O=C(N/N=C/c1cc(Cl)cc([N+](=O)[O-])c1O)C1CC1 | – | 25.1 µM [falling, partial curve] |
| O=C(Nc1ccc2c(c1)OCO2)C1CCN(S(=O)(=O)c2ccc3c(c2)OCCO3)CC1 | – | 17.8 µM [rising, partial curve] |
| COc1cccc(CN2CCNC(=O)C2CC(=O)NCCn2cccn2)c1OC (configuration not stated) | – | 0.01 µM [falling, full curve, poor fit] |
| CCn1c(NCc2ccc(N(C)C)cc2)nc2ccccc21 | – | 35.5 µM [rising, single point] |
| O=C(O)/C=C/C(=O)NCc1ccccc1 | – | 20 µM [falling, partial curve, poor fit] |
| COc1ccccc1Nc1nc(-c2sc(NC(=O)C(C)(C)C)nc2C)cs1 | – | 22.4 µM [rising, partial curve] |
| CSc1cccc(NC(=O)C(c2ccccc2)N2Cc3ccccc3C2=O)c1 (configuration not stated) | 20 µM [falling, partial curve, poor fit] | 35.5 µM [falling, partial curve, poor fit] |
| Cc1ccc(NC(=O)CSc2nc3ccc(NC(=O)c4ccco4)cc3s2)c(C)c1 | 14.1 µM [falling, partial curve, poor fit] | 35.5 µM [falling, partial curve, poor fit] |

| SMILES | AC50 [1] | AC50 [2] |
| --- | --- | --- |
| COc1ccc([N+](=O)[O-])cc1NC(=O)c1ccc(CN(c2ccccc2)S(C)(=O)=O)cc1 | – | 0.0355 µM [falling, full curve, poor fit] |
| Cc1[nH]nc2c1C(c1cn[nH]c1-c1ccc(F)cc1)C(C#N)=C(N)O2 (configuration not stated) | 14.1 µM [rising, single point] | 14.1 µM [rising, partial curve, poor fit] |
| O=C(c1ccc(Cl)cc1)N1CCC(O)(CSc2ccccc2)CC1 | – | 17.8 µM [rising, single point] |
| Cc1cc(SCC(=O)N/N=C/c2ccc(O)cc2O)c(C)cc1Br | – | 12.6 µM [rising, partial curve] |
| O=S(=O)(Nc1ccc(N2CCCCC2)cc1)c1ccccc1 | – | 35.5 µM [rising, single point] |
| O=C(COc1cccc2ccccc12)NNC(=O)Nc1ccccc1 | 22.4 µM [falling, single point] | 12.6 µM [falling, partial curve] |
| CC(C)Cc1cc(C(=O)N2CCN(C(c3ccccc3)c3ccccc3)CC2)no1 | – | 35.5 µM [rising, single point] |
| COc1cc(C(=O)O/N=C2\C=CC(=O)C(C)=C2)cc(OC)c1OC | 12.6 µM [falling, partial curve] | 14.1 µM [falling, partial curve] |
| CCCOC(=O)c1ccc(NS(=O)(=O)c2cccs2)cc1 | – | 17.8 µM [rising, single point] |
| COCCN1C(=O)N[C@@H](c2ccc(Br)cc2)C(C(C)=O)=C1C | 5.62 µM [falling, single point] | – |
| CCCOc1cccc(-c2nc3ccccc3c(=O)o2)c1 | 35.5 µM [falling, single point] | – |
| O=C1CC(N2CCSCC2)C(=O)N1c1ccccc1 (configuration not stated) | 5.62 µM [rising, single point] | – |
| CN1/C(=C\C(=S)NC(=O)c2ccccc2Cl)C(C)(C)c2ccccc21 | 11.2 µM [rising, single point] | 25.1 µM [rising, single point] |
| Nc1ccc(S(=O)(=O)Nc2nccs2)cc1 | 35.5 µM [falling, single point] | 35.5 µM [falling, partial curve, poor fit] |
| O=C(COC(=O)/C(=C/c1cccs1)c1cccs1)NCc1ccccc1Cl | – | 11.2 µM [rising, single point] |
| Cc1ccc2cc3c(N)[nH]nc3nc2c1 | 3.98 µM [falling, full curve, poor fit] | 10 µM [falling, single point] |
| Cc1ccc(NC(=O)COC(=O)c2ccccc2-c2nc3ccccc3s2)c(C)c1 | 35.5 µM [rising, single point] | 35.5 µM [rising, single point] |
| COc1ccccc1-n1cnc2cc(NS(=O)(=O)c3ccc(Br)cc3)ccc21 | 28.2 µM [rising, single point] | 22.4 µM [rising, single point] |
| Cc1ccc(C)c(N2CCN(C(=O)CCn3c(=O)[nH]c4ccccc4c3=O)CC2)c1 | – | 0.631 µM [falling, single point] |

Structural class: the entries above containing an aryl thioether with sulfur outside any ring (6)

| SMILES | AC50 [1] | AC50 [2] |
| --- | --- | --- |
| CCc1c(C#N)c(SCCC(=O)Nc2cccc(OC)c2)nc2c1C(=O)CC(C)(C)C2 | – | 35.5 µM [rising, single point] |
| CCCc1cc(=O)[nH]c(SCC(=O)c2cc(C)n(CCOC)c2C)n1 | 11.2 µM [rising, partial curve] | – |
| CSc1cccc(NC(=O)C(c2ccccc2)N2Cc3ccccc3C2=O)c1 (configuration not stated) | 20 µM [falling, partial curve, poor fit] | 35.5 µM [falling, partial curve, poor fit] |
| Cc1ccc(NC(=O)CSc2nc3ccc(NC(=O)c4ccco4)cc3s2)c(C)c1 | 14.1 µM [falling, partial curve, poor fit] | 35.5 µM [falling, partial curve, poor fit] |
| O=C(c1ccc(Cl)cc1)N1CCC(O)(CSc2ccccc2)CC1 | – | 17.8 µM [rising, single point] |
| Cc1cc(SCC(=O)N/N=C/c2ccc(O)cc2O)c(C)cc1Br | – | 12.6 µM [rising, partial curve] |

Following part.

| SMILES | AC50 [1] | AC50 [2] |
| --- | --- | --- |
| Cc1cccc(OCCSc2nc3ccc(NC(=O)COc4ccccc4F)cc3s2)c1 | 1 µM [falling, full curve, poor fit] | – |
| CCCCCC(=O)NNC1=NCC(Cc2cccc(Cl)c2)S1 (configuration not stated) | 20 µM [falling, single point] | – |
| C/C(=N/OCc1ccc(Br)cc1)c1ccccn1 | – | 0.447 µM [falling, partial curve, poor fit] |
| Cc1nn(CCCC(=O)Nc2cccnc2Cl)c(C)c1[N+](=O)[O-] | – | 0.00316 µM [rising, full curve, poor fit] |
| COC(=O)C1=C(C)N=C2SC(C)C(=O)N2C1/C=C/c1ccccc1OC (configuration not stated) | 15.8 µM [rising, single point] | 35.5 µM [rising, single point] |
| CC(CNC(=O)c1ccc2c(c1)nc1n2CCOC1)c1ccccc1 (configuration not stated) | 0.126 µM [rising, full curve, poor fit] | 35.5 µM [rising, single point] |
| Cc1ccc(-c2nnc(N3CCN(c4ccccn4)CC3)c3ccccc23)cc1 | 35.5 µM [falling, single point] | 35.5 µM [falling, single point] |
| Nc1c2c(nc3ccccc13)N(C1CCCCC1)CC2 | – | 11.2 µM [rising, partial curve] |
| O=C(c1cccs1)n1nc(NCc2ccccc2)nc1NCc1ccccc1 | 31.6 µM [rising, single point] | 17.8 µM [rising, single point] |
| Cc1ccc2c(c1)c1c3n2CCCN(Cc2ccccc2)C3CCC1 (configuration not stated) | 0.02 µM [falling, full curve, poor fit] | – |
| COc1ccc(/C=C/C(=O)Nc2ccc(OC)nc2)cc1 | 12.6 µM [rising, partial curve] | 22.4 µM [rising, partial curve] |
| COc1cc(/C=C(\C#N)C(=O)Nc2cccc3ncccc23)cc(OC)c1OC | – | 25.1 µM [rising, single point] |
| Cc1ccc(-c2nnc(NCc3nc4ccccc4[nH]3)c3ccccc23)cc1S(=O)(=O)N1CCOCC1 | 35.5 µM [rising, single point] | 25.1 µM [rising, single point] |
| Cc1ccc(NC(=S)NCCc2ccccc2)c(C)c1 | 11.2 µM [rising, partial curve] | 22.4 µM [rising, single point] |
| Cc1ccc(Sc2ncnc(N)c2[N+](=O)[O-])cc1 | – | 7.94 µM [rising, partial curve] |
| S=c1[nH]nc(C2CCCCC2)o1 | – | 11.2 µM [falling, partial curve] |
| O=C(N/N=C\c1cc(Br)cs1)C1COc2ccccc2O1 (configuration not stated) | – | 25.1 µM [rising, partial curve] |
| CCCCOc1ccc(CSc2n[nH]c(C)n2)cc1 | – | 5.62 µM [rising, partial curve] |

Arranged by molar mass (falling): some entries from above.

| SMILES | AC50 [1] | AC50 [2] |
| --- | --- | --- |
| Cc1ccc(-c2nnc(NCc3nc4ccccc4[nH]3)c3ccccc23)cc1S(=O)(=O)N1CCOCC1 | 35.5 µM [rising, single point] | 25.1 µM [rising, single point] |
| Cc1nn(CCCC(=O)Nc2cccnc2Cl)c(C)c1[N+](=O)[O-] | – | 0.00316 µM [rising, full curve, poor fit] |
| Cc1ccc2c(c1)c1c3n2CCCN(Cc2ccccc2)C3CCC1 (configuration not stated) | 0.02 µM [falling, full curve, poor fit] | – |
